We go through one molecule from patent US20110207751A1, “HETEROCYCLIC COMPOUNDS AND USES AS ANTICANCER AGENTS” (priority 2010, published 2011).

This assay deals with MCF7 cells (human breast cancer cell line). The assay is described as follows: Inhibition of cell proliferation, xCelligence cell index. The assay is classed as cell-based. To be noted: 72 hr post compound treatment, read-out: calculated IC50. The source says:
The biological activity of compounds disclosed herein was monitored and profiled using the Real-Time Cell Electronic Sensing (RT-CES®) system from ACEA Biosciences, Inc. The RT-CES system utilizes cell-substrate impedance technology to monitor cellular behavior inside tissue culture wells in a microtiter plate format. The technology features in the integration of molecular and cell biology with microelectronics and is based on the electronic detection of biological assay process. […]
For measurement of cell-substrate or cell-electrode impedance using RT-CES technology, microelectrodes having appropriate geometries are fabricated onto the bottom surfaces of microtiter plate or similar device, facing into the wells. […] When there are changes to the biological status of the cells analogue electronic readout signals are measured automatically and in real time, and are converted to digital signals for processing and for analysis. In a RT-CES system, a cell index (arbitrary representation of change in impedance) is automatically derived and provided based on measured electrode impedance values. […]
To quantify cell status based on the measured cell-electrode impedance, a parameter termed Cell Index is derived. Cell Index is a quantitative measure of the status of the cells in an electrode-containing well. […]

As usually defined, the IC50 is the point on the concentration scale where inhibition reaches its midpoint. Consider `CC(=O)O[C@H]1C(=O)[C@@]2(C)[C@H]([C@H](OC(=O)c3ccccc3)[C@]3(O)C[C@H](OC(=O)[C@H](O)[C@@H](NC(=O)c4ccccc4)c4ccccc4)C(C)=C1C3(C)C)[C@]1(OC(C)=O)CO[C@@H]1C[C@@H]2O` [paclitaxel], for which the IC50 was 11.3 nM.
